Measured data: PubChem BioAssay AID1259405 (NCATS, 2018)
Here is an unselected part of about 50,000 deposited reagents. Of all reagents, about 4,000 (8%) were called active. 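Mouse siRNA library applied to hamster cells; one well for each siRNA.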 Reagents against one gene are numbered here.

Purpose: 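Mouse-designed siRNAs used to find CHO productivity engineering targets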 (primary screen)
Cell system: Chinese hamster CHO-K1 ovary cells with stable secreted eGFP expression
Reagents: single siRNA against mouse genes, 0.8 pmol siRNA per well (2 µl of 400 nM stock)
Time to read-out: 3 days
Detection: 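Per-well intracellular GFP measured by laser scanning cytometry, plus viability from ATP luminescence, each relative to plate median of non-targeting control wells, in %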
Reading the numbers: GFP, % of control: higher = more GFP per well, higher productivity; viability (ATP), % of control: higher = more viable cells (more ATP)
Call rule: 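Called active when intracellular GFP, relative to negative control, is at or above 120%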

gene	reagent no.	GFP, % of control	viability (ATP), % of control	activity call
Lifr	1	120	96	active
Lifr	2	112	86.1	inactive
Lifr	3	64.1	54.6	inactive
Cd83	1	60.2	62.4	inactive
Cd83	2	67.3	63.2	inactive
Cd83	3	75.9	105	inactive
Scml2	1	70.5	68.2	inactive
Scml2	2	81.4	83.1	inactive
Scml2	3	65.9	78	inactive
Sowahb	1	74.3	67.9	inactive
Sowahb	2	70.4	72.9	inactive
Sowahb	3	101	125	inactive
Tbc1d20	1	122	72.2	active
Tbc1d20	2	74.5	42	inactive
Tbc1d20	3	81.6	83.2	inactive
Naalad2	1	89.7	97.6	inactive
Naalad2	2	120	130	inactive
Naalad2	3	49.2	68.8	inactive
Wfdc18	1	41.6	112	inactive
Wfdc18	2	68.2	81.8	inactive
Wfdc18	3	98.9	104	inactive
Slc22a12	1	111	95.6	inactive
Slc22a12	2	144	124	active
Slc22a12	3	140	68.8	active
Cd59a	1	54.7	51.1	inactive
Cd59a	2	43.5	81	inactive
Cd59a	3	60.6	53.4	inactive
Ms4a13	1	62.7	43.2	inactive
Ms4a13	2	64.5	68.3	inactive
Ms4a13	3	69.9	85	inactive
Taf2	1	59.5	63.8	inactive
Taf2	2	81.9	100	inactive
Gchfr	1	48.4	78.2	inactive
Gchfr	2	87.8	59.5	inactive
Plekha2	1	58.5	60	inactive
Plekha2	2	75.6	75.9	inactive
Plekha2	3	65.3	64.9	inactive
Krtap4-13	1	134	66.4	active
Krtap4-13	2	72.8	80.8	inactive
Krtap4-13	3	87	44.4	inactive
Rpa1	1	75.3	97.2	inactive
Rpa1	2	104	118	inactive
Jsrp1	1	35.7	70.6	inactive
Jsrp1	2	71.8	23.8	inactive
Jsrp1	3	81.5	79.3	inactive
Cdk1	1	73.2	74.5	inactive
Arrb1	1	35	78.4	inactive
Arrb1	2	56.2	70.6	inactive
Arhgef37	1	59.2	57	inactive
Arhgef37	2	69	82.1	inactive
Arhgef37	3	150	118	active
Cpeb3	1	74.1	78.4	inactive
Cpeb3	2	76.7	89.7	inactive
Cpeb3	3	79.7	75.1	inactive
Tnfrsf13c	1	81.8	95.3	inactive
Tnfrsf13c	2	106	119	inactive
Tnfrsf13c	3	171	147	active
Tnfrsf13c	4	85.8	82.5	inactive
Tnfrsf13c	5	96.2	86.9	inactive
Tnfrsf13c	6	82.1	95.1	inactive
Crkl	1	65.9	86.7	inactive
Crkl	2	71.6	75.1	inactive
Crkl	3	107	138	inactive
Wnt4	1	61.5	44.8	inactive
Wnt4	2	52.5	55.6	inactive
Wnt4	3	44.9	52.7	inactive
Narf	1	101	64.6	inactive
Narf	2	54.2	59.2	inactive
Narf	3	75.2	95.7	inactive
Cers6	1	51.7	67.2	inactive
Cers6	2	52	38.1	inactive
Cers6	3	20.9	37	inactive
G6pd2	1	83.1	65.4	inactive
G6pd2	2	64.2	77.2	inactive
G6pd2	3	23.3	30.7	inactive
Wipi1	1	80	74.1	inactive
Wipi1	2	92.3	59.4	inactive
Wipi1	3	95.1	97.2	inactive
Krt77	1	56.8	58.5	inactive
Krt77	2	115	40.7	inactive
Exosc3	1	54	66	inactive
Exosc3	2	61.4	84.2	inactive
Exosc3	3	57.4	65.3	inactive
Sstr3	1	80.9	84.1	inactive
Sstr3	2	70	73.7	inactive
Sstr3	3	27.9	29.5	inactive

11 entries from above, ordered by “GFP, % of control”, lowest first.
gene	reagent no.	GFP, % of control	viability (ATP), % of control	activity call
Cers6	3	20.9	37	inactive
Wnt4	3	44.9	52.7	inactive
Cers6	1	51.7	67.2	inactive
Cers6	2	52	38.1	inactive
Wnt4	2	52.5	55.6	inactive
Narf	2	54.2	59.2	inactive
Wnt4	1	61.5	44.8	inactive
G6pd2	2	64.2	77.2	inactive
Narf	3	75.2	95.7	inactive
G6pd2	1	83.1	65.4	inactive
Narf	1	101	64.6	inactive
